Measured values published in patent US20230235075A1.
No constants are given. Whether binding was seen depends on the method and setting. Some entries that bind do so weakly or less than the wild type.

Chains of the proteins cited; added tags and fusions are not shown. Lines headed by an entry give the natural chain unless they say otherwise; changes in a name come on top. Residues count along the entry.
UniProt Q9NPY3, residues 22-580: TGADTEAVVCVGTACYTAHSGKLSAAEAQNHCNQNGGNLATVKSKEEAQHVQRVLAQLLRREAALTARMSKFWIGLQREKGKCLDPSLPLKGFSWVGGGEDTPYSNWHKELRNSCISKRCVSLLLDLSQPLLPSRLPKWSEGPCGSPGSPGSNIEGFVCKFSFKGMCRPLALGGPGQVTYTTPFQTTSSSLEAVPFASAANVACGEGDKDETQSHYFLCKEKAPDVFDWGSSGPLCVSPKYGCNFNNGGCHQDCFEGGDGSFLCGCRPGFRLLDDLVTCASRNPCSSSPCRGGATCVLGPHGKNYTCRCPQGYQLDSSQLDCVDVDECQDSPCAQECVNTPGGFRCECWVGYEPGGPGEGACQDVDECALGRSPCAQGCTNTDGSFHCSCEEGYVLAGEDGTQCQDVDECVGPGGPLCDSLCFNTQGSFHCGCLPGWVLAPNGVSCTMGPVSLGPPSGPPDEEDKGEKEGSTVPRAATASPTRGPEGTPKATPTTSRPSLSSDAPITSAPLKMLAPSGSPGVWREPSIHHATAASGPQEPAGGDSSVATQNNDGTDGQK

What was measured:
[1] = molecular target: cynomolgus CD93 protein (made in-house) (cynomolgus); assay: BLI (Octet QKe), biotinylated cynomolgus CD93 on streptavidin sensors
[2] = molecular target: cynomolgus CD93 protein (made in-house) (cynomolgus); assay: summary table, column 'Cyno Cross (EEISA)', ELISA
[3] = molecular target: cynomolgus CD93 protein (made in-house) (cynomolgus); assay: BLI (Octet QKe), biotinylated CD93 on streptavidin sensors
[4] = molecular target: Human CD93 recombinant protein (Sino Biological Inc, Catalog #12589-H08H) (human) (UniProt Q9NPY3); assay: ELISA, His-tagged human CD93 coated at 1 µg/mL, anti-human Fc HRP

binding [1]	binding [2]	binding [3]	binding [4]	Binder
binds	binds			17E6 (antibody, V domains shown) VH: EVQLQQSGPELVKPGASVKMSCKASGYTFTSYVIHWVKQKPGQGLEWIGYINPYSDYTQYNEKFKGKATLTSDKSSSTAYMELSSLTSEDSAVYSCARRADGNPYAMDYWGQGTSVTVSS VL: DIVMTQSHKFMSTSVGDRVSTTCKASQDVSTAVVWYQQKPGQSPKLLIYSASYRYTGVPDRFTGSGSGTDFTFTITSVQAEDLAVYYCQQHYSTPFTFGSGTKLEIK
binds	binds			20C7 (antibody, V domains shown) VH: EVQLQQSGPELVNPGASVKMSCKASGYTFTAYVMHWVKQKPGQGLEWIGYIFPYNDGTEYNEKFKGKATLTSDKSSSTAYMELSSLTSEDSAVYYCARRTDGNPYTMDYWGQGTSVTVSS VL: DIVMTQSHKFMSTSVGDRVSITCKASQDVSTAVAWYQQKPGQSPKLLIHSASYRYTGVPDRFTGRGSGTDFTFTISSVQAEDLAVYYCQQHYSTPFTFGSGTKLEIK
binds	binds			16G9 (antibody, V domains shown) VH: EVQLQQSGPELVKPGASVKMSCKASGYTFTDYYMNWVKQSHGKSLEWIGRVNPNNGGKTYNQKFKGKATLTVDKSLSTAYMQLNSLTSEDSAVYYCARWRLRPVDYGMDYWGQGTSVTVSS VL: DIVLTQSPASLAVSLGQRATISCRASQSVSTSSYSYMHWYQQKPGQPPKLLIKYASNLESGVPARFSGSGSGTDFTLNIHPVEEEDTATYYCQHSWEIPFTFGSGTKLEIK
binds	binds			17B10 (hybridoma) (antibody, V domains shown) VH: QVQLQQSGPELVKPGASVKISCKASGYAFSSYWLNWVKQRPGKGLEWFGRIYPGDGDTDYNGKFKGKATLTADKSSSTAYMQLRSLTSEDSAVYFCVRGDGYWAMDYWGQGTSVTVSS VL: DIVMTQAAFSNPVTLGTSASISCRFSKSLLHSNGITYLYWYLQKPGQSPQLLIYQMSNLASGVPDRFSSSGSGTDFTLRISRVEAEDVGVYYCAQNLELPWTFGGGTKLEIK
	binds	binds		10B1 (antibody, V domains shown) VH: QVQLKQSGPGLVQPSQSLSITCTVSDFSLSSFGVNWVRQPPGKGLEWLGVIWSGGSTDYNVAFISRLSISKDNSKSQVFFKMNNLQADDTAIYYCARNWRYDGYFYAMDYWGQGTSVTVSS VL: DIVMTQSQKFMSTSTGDRVSVTCKASQNVGTNVAWYQQKPGQSPKALIYSASYRFIGVPDRFTGSGSGTDFTLTITNVQSEDLAEYFCQQYNRNPITFGSGTKLEIK
binds	binds			16B6 (antibody, V domains shown) VH: QVQLQQSGPELVKPGASVKISCKASGYAFSRSWMNWVKQRPGKGLEWIGWIYPGDGDTNYNGKFKGKATLTADKSSSTAYMQLSSLTSEDSAAYFCARSATLPYWYFDVWGAGTTVTVSS VL: DIKMTQSPSSMYASLGERVTITCKASQDIKSYLSWYQQKPWKSPKTLIYYATNLADGVPSRFSGSGSGQDYSLTISSLGSDDTATYYCLQHVESPWTFGGGTKLEIK
binds	binds			19E12 (antibody, V domains shown) VH: QVQLQQSGAELVRPGASVKLSCKASGYTFTDYEMHWVRQTPVHGLEWIGGIDPETGGTAYNQKFKGKATLTADKSSSTAYMELRSLTSEDSAVYYCTRGAWFAYWGQGTLVTVSA VL: QAVVTQESALTTSPGETVTLTCRSSTGAVTTSNSANWVQEKPDHLFTGLIGGTNNRAPGVPARFSGSLIGDKAALTITGAQTEDEAIYFCALWYNNHFVFGGGTKLTVL
binds	binds			12H4 (antibody, V domains shown) VH: EVQLQQSGPELVKPGASVKVSCKASGYTFTDYYIHWVKQRPGQGLEWIGEIYPGSDDAYYNEKFKGKATLTADKSSSTAYMQLSSLTSEDSAVYFCTRETTATAYWGQGTLVTVSA VL: QIVLTQSPAIMSASPGEKVTITCSASSSVSLIYWFQQKPGTSPKLWIYSTSNLASGVPARFSGSGSGTSYSLTISRMEAEDAATYYCQQRSGYPPTFGGGTKLEIK
			binds	7F3-hIgG1 (antibody, V domains shown) VH: QVQLQQSGADLVRPGASVKLSCKASGYTFTDYEMHWVKQTPVYGLEWIGGIDPETGDTAYNQNFKGKATLTADKSSSAAYMELRSLTSEDSAVYYCTNYGNLYYYAMDYWGQGTSVTVSS VL: ENVLTQSPAIMSASPGEKVTMTCRASSSVSSSYLHWYQQKSGASPKLWIYSTSNLAFGVPARFSGSGSGTSYSLTISSVEAEDAATYYCQQYSGYPLTFGSGTKLEIK
	binds	binds		7F3 (hybridoma) (antibody, IgG1, V domains shown) VH: QVQLQQSGADLVRPGASVKLSCKASGYTFTDYEMHWVKQTPVYGLEWIGGIDPETGDTAYNQNFKGKATLTADKSSSAAYMELRSLTSEDSAVYYCTNYGNLYYYAMDYWGQGTSVTVSS VL: ENVLTQSPAIMSASPGEKVTMTCRASSSVSSSYLHWYQQKSGASPKLWIYSTSNLAFGVPARFSGSGSGTSYSLTISSVEAEDAATYYCQQYSGYPLTFGSGTKLEIK
binds	binds			19B5 (antibody, V domains shown) VH: DVNLVESGGGLVKLGGSLKLSCAASGFTFSNYYMSWVRQSPEKRLEWVATISNNGDSTYYLDTVKGRFTISRDSAENTLYLQMSSLISEDTAVYYCTRVGTGFTYWGQGTLVTVSA VL: DIVLTQSPATLSVTPGDSVSLSCRASQSINNYLHWYQQRSHESPRLLIKFASQSISDIPSRFSGSGSGTDFTLSINSIETEDFGMYFCQQSNSWPLTFGAGTKLELK
binds	binds			5H9 (antibody, IgG2a, V domains shown) VH: QVQLQQSGPDLVKPGASVKISCKASGYAFSTYWMNWVKQRPGKGLEWIGRIFPGDGDANYNGKFKGKATLTADKSSSTAYMQLSSLTSEDSAVYFCTRTGAAYDFDPFPYWGQGTLVTVSA VL: DIVMTQAAFSNPVTLGTSASISCSSSKSLLHSNGVTYLYWYLQRPGQSPQLLIYRMSNLASGVPDRFSGSGSGTDFTLRISRVEAEDVGIYYCAQMLERPFTFGSGTKLEIK
binds	binds			17A7 (antibody, V domains shown) VH: QVQLQQSGPELVKPGASVKISCKGSGYAFSTYWMNWVKQRPGKGLEWIGRIFPGDGDTDYDGKFKGKATLTADKSSNTAYMQLSSLTSEDSAVYFCARTGAAYEFDPFPYWGQGTLVTVSA VL: DIVMTQAAFSNPVTLGTSASISCSSTKSLLHSSGITYLYWYLQRPGQSPQLLIYRMSNLASGVPDRFSGSGSGTDFTLRISRVEAEDVGVYYCAQMLERPFTFGSGTKLEIK
